The values below come from PMC11868331, “A Phase 1b study of the OxPhos inhibitor ME-344 with bevacizumab in refractory metastatic colorectal cancer” (Investigational New Drugs, 2024).

The data set deals with plasma metabolites. Nature of the data set: Metabolomic sub-study, untargeted LC-MS/MS of fasting plasma. In kind it is in vivo, human.
Where [1] appears, read: in ≥ 4 of 6 patients, baseline vs 6 h after ME-344 administration.

With `Cc1c(O)ccc2c1OC[C@@H](c1ccc(O)cc1)[C@H]2c1ccc(O)cc1` [ME-344], the “glutamate, serine, ornithine, proline, asparagine, and hypoxanthine in plasma” value (6 h after ME-344, particularly in subjects longest on therapy) is recorded as “acutely decreased”. Moreover, under “in at least 4 patients, initial ME-344 administration”, the “unique metabolites that dynamically changed” value is recorded as 18 metabolites. In addition, under setting [1], the “metabolites with ≥ 20% decrease, negative mode analysis” value is recorded as 14 metabolites and the “metabolites with ≥ 20% decrease, positive mode analysis” value turned out to be 10 metabolites.
